Measured values: PMC4595830
Results are given in words; binding and its absence hold for the method and conditions named. In cells and extracts the contact can be indirect. Some results given as binding are weak or reduced against the parent protein; the word gives no strength.

Sequences of proteins named here, by UniProt entry; tags and fusion partners are left off.
UniProt Q91YH6: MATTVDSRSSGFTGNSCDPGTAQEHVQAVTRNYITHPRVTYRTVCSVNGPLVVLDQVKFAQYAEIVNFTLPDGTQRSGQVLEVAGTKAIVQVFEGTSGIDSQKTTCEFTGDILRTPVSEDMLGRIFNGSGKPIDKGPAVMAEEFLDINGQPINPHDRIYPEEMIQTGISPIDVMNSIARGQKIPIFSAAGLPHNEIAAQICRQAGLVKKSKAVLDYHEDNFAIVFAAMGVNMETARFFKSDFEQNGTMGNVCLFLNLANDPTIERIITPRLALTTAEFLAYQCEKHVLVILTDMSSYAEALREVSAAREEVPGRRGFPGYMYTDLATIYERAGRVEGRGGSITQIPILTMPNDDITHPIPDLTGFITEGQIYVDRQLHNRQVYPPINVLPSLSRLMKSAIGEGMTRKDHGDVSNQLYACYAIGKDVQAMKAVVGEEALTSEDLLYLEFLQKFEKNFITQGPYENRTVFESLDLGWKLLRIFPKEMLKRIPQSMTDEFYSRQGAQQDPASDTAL
UniProt P26040: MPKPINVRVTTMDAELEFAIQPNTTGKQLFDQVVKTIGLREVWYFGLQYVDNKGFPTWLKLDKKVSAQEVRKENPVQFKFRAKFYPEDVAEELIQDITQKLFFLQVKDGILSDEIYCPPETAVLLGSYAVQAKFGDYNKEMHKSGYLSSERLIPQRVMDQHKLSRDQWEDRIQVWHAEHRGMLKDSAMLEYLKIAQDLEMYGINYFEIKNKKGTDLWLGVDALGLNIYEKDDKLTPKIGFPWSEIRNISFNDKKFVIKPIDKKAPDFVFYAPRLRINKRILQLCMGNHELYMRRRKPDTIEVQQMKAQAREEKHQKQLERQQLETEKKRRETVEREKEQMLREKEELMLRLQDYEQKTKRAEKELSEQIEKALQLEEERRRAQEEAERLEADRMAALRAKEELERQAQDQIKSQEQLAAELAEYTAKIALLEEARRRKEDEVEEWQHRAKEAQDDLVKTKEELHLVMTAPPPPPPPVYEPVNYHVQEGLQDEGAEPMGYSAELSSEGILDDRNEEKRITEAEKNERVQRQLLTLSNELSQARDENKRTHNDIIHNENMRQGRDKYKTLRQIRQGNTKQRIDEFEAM

Biological target: ATPase, H+ transporting, lysosomal V1 subunit B1 (mouse (endogenous in kidney)) (UniProt Q91YH6)
Assay: co-IP; proteins immunoprecipitated by anti-B1 antibodies from whole mouse kidney lysates, detected by Western blotting with antibodies against the indicated proteins

binding: binds
Substance: ezrin (from UniProt P26040 1-586)
